PubChem BioAssay AID1159584 | Peter MacCallum Cancer Centre | 2016
Test: 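Knock-downs that harm CDH1-null cells more than parental MCF10A cells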 (primary screen). Cell system: human MCF10A breast epithelial cells, parental and CDH1-null. Reagents: siRNA against human genes. Measured: 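ATP luminescence (CellTiter-Glo) viability per line relative to mean mock wells over all plates, and the ratio of CDH1-null to parental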. Reading the numbers: CDH1-null / parental viability ratio: higher = CDH1-null cells survive relatively better than parental; CDH1-null viability vs mock: higher = more viable CDH1-null cells; parental viability vs mock: higher = more viable parental cells.
Shown is one part, drawn at random, of about 18,000 reagents. Not given: the amount of reagent, the time to read-out.

no.	target	PubChem SID	CDH1-null / parental viability ratio	CDH1-null viability vs mock (fraction of mock)	parental viability vs mock (fraction of mock)
1	ZNF394 (GeneID 84124)	SID134322820	1.41	0.62	0.44
2	FOXR1 (GeneID 283150)	SID152156765	0.97	0.72	0.74
3	ELMOD3 (GeneID 84173)	SID134320931	1.03	0.95	0.92
4	RGS7 (GeneID 6000)	SID152151510	0.95	1.04	1.09
5	KMT5A (GeneID 387893)	SID134329403	0.9	0.72	0.8
6	FERRY3 (GeneID 57102)	SID134320582	1.05	0.9	0.86
7	ZPLD1 (GeneID 131368)	SID134321903	1.11	1.04	0.94
8	UTP14A (GeneID 10813)	SID152151359	1.1	0.55	0.5
9	SLC39A4 (GeneID 55630)	SID152152174	1.02	0.95	0.93
10	ELMO2 (GeneID 63916)	SID135623703	1.03	0.71	0.69
11	OR2T2 (GeneID 401992)	SID134329838	1.19	0.86	0.72
12	SAPCD1 (GeneID 401251)	SID135625438	1.19	0.74	0.62
13	RPS9 (GeneID 6203)	SID152147956	1.01	0.85	0.84
14	PROKR1 (GeneID 10887)	SID134311033	0.82	0.62	0.76
15	GGA2 (GeneID 23062)	SID152152826	0.82	0.73	0.89
16	LDB2 (GeneID 9079)	SID134316834	1.03	0.75	0.73
17	MAP2K4 (GeneID 6416)	SID56478690	0.96	0.65	0.68
18	PRSS37 (GeneID 136242)	SID152152160	0.73	0.58	0.79
19	MATK (GeneID 4145)	SID152153842	0.98	0.8	0.82
20	SHCBP1L (GeneID 81626)	SID135622796	0.98	0.78	0.8
21	EGR3 (GeneID 1960)	SID134311852	1.06	0.92	0.87
22	USH2A (GeneID 7399)	SID134316657	0.67	0.42	0.63
23	FCSK (GeneID 197258)	SID152149608	0.86	0.72	0.84
24	CD160 (GeneID 11126)	SID152152781	0.8	0.48	0.6
25	RTP2 (GeneID 344892)	SID135624395	0.92	0.68	0.74
26	OIT3 (GeneID 170392)	SID134320913	1.02	1.02	1
27	SUSD3 (GeneID 203328)	SID134320787	1.08	0.82	0.76
28	CDC45 (GeneID 8318)	SID56478592	0.87	0.55	0.63
29	SOSTDC1 (GeneID 25928)	SID135622645	1.2	0.84	0.7
30	HS6ST2 (GeneID 90161)	SID152155602	1.02	1.19	1.17
31	RBKS (GeneID 64080)	SID56479147	0.94	0.99	1.05
32	STAG3L3 (GeneID 442578)	SID135625598	1.19	0.89	0.75
33	COPS5 (GeneID 10987)	SID134311241	0.68	0.5	0.73
34	RAD18 (GeneID 56852)	SID134310538	0.96	0.94	0.98
35	CDON (GeneID 50937)	SID152147453	1.38	0.88	0.64
36	PARP2 (GeneID 10038)	SID152151120	0.9	0.74	0.82
37	PSPC1 (GeneID 55269)	SID152153964	1.12	0.92	0.82
38	MTG1 (GeneID 92170)	SID152149198	1.04	0.86	0.83
39	CASZ1 (GeneID 54897)	SID152156375	1.01	0.87	0.86
40	LIMK1 (GeneID 3984)	SID135621436	1.06	1.08	1.02
41	CDY2A (GeneID 9426)	SID135621931	0.87	0.59	0.68
42	PLK1 (GeneID 5347)	SID56478632	0.66	0.29	0.44
43	NSUN6 (GeneID 221078)	SID135623606	0.79	0.69	0.87
44	ZC3H14 (GeneID 79882)	SID135622751	0.98	0.86	0.88
45	SLC36A3 (GeneID 285641)	SID134312598	0.89	0.68	0.76
46	SYT3 (GeneID 84258)	SID134318928	1.05	0.84	0.8
47	GNA14 (GeneID 9630)	SID134313428	0.89	0.64	0.72
48	CFAP298 (GeneID 56683)	SID134318041	1.08	1.19	1.1
49	NRL (GeneID 4901)	SID152149961	1.06	0.92	0.87
50	SALL1 (GeneID 6299)	SID135621217	1.14	0.48	0.42
51	CDK3 (GeneID 1018)	SID56478597	0.94	0.82	0.87
52	MYBBP1A (GeneID 10514)	SID152153253	1.32	0.7	0.53
53	SLC26A4 (GeneID 5172)	SID152151742	1.07	1.37	1.28
54	MXRA8 (GeneID 54587)	SID135625196	1.37	1.04	0.76
55	TMPRSS5 (GeneID 80975)	SID135621130	1.14	0.96	0.84
56	RPP25 (GeneID 54913)	SID152155784	1.07	0.79	0.74
57	HTR2A (GeneID 3356)	SID152153667	1.42	0.98	0.69
58	ARHGAP44 (GeneID 9912)	SID134314003	0.91	0.81	0.89
59	MEP1A (GeneID 4224)	SID152153309	1.21	0.87	0.72
60	FNDC8 (GeneID 54752)	SID152148290	1.15	0.63	0.55
61	ZSCAN5A (GeneID 79149)	SID134318490	1.06	0.66	0.62
62	H1-3 (GeneID 3007)	SID134316344	0.94	0.84	0.89
63	PIWIL4 (GeneID 143689)	SID134310563	0.92	0.74	0.8
64	FBXO6 (GeneID 26270)	SID134317544	0.91	0.74	0.81
65	TMED7 (GeneID 51014)	SID152152282	1.24	1.07	0.86
66	OR5D13 (GeneID 390142)	SID152147863	1.28	0.92	0.72
67	CCDC22 (GeneID 28952)	SID152148780	0.92	0.56	0.61
68	TRIM65 (GeneID 201292)	SID152149536	0.77	0.57	0.74

Ordered by “CDH1-null / parental viability ratio” (ascending): 10 of the entries above
target	PubChem SID	CDH1-null / parental viability ratio	CDH1-null viability vs mock (fraction of mock)	parental viability vs mock (fraction of mock)
USH2A (GeneID 7399)	SID134316657	0.67	0.42	0.63
PRSS37 (GeneID 136242)	SID152152160	0.73	0.58	0.79
CD160 (GeneID 11126)	SID152152781	0.8	0.48	0.6
FCSK (GeneID 197258)	SID152149608	0.86	0.72	0.84
RTP2 (GeneID 344892)	SID135624395	0.92	0.68	0.74
MAP2K4 (GeneID 6416)	SID56478690	0.96	0.65	0.68
MATK (GeneID 4145)	SID152153842	0.98	0.8	0.82
SHCBP1L (GeneID 81626)	SID135622796	0.98	0.78	0.8
LDB2 (GeneID 9079)	SID134316834	1.03	0.75	0.73
EGR3 (GeneID 1960)	SID134311852	1.06	0.92	0.87
